Drawing on publication PMC7375649, “Varicella zoster virus encodes a viral decoy RHIM to inhibit cell death” (PLoS Pathogens, 2020), this text covers binding for 3 substances.

Protein sequences, listed by entry. Tags and fused reporters are not part of them. Lines headed by an entry give the natural chain unless they say otherwise; changes in a name come on top. Residues count along the entry.
UniProt Q13546: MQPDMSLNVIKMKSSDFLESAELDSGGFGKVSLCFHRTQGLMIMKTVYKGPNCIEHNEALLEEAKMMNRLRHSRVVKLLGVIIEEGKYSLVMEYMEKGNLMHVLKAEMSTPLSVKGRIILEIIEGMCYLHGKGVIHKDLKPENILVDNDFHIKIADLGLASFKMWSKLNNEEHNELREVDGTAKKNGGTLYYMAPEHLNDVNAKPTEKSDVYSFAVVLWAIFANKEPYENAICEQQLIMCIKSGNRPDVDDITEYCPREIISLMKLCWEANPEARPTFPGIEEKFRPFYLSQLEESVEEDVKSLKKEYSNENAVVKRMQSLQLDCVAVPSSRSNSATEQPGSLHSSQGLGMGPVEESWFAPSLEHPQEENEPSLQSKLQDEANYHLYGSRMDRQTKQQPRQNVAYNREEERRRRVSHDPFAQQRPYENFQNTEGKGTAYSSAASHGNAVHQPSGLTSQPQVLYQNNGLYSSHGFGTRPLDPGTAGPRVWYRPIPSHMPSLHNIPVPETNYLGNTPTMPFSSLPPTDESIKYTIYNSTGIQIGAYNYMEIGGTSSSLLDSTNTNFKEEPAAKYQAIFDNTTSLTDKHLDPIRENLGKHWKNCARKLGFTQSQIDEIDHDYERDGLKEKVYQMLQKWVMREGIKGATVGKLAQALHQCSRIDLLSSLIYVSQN
YPet-RIPK1_(497-583): residues 497-583 of Q13546
UniProt Q9Y572, residues 387-518: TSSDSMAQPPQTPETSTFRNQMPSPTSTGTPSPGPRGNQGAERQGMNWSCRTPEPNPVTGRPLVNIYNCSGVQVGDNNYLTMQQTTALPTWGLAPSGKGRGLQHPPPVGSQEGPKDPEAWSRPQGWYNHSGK
UniProt P09276: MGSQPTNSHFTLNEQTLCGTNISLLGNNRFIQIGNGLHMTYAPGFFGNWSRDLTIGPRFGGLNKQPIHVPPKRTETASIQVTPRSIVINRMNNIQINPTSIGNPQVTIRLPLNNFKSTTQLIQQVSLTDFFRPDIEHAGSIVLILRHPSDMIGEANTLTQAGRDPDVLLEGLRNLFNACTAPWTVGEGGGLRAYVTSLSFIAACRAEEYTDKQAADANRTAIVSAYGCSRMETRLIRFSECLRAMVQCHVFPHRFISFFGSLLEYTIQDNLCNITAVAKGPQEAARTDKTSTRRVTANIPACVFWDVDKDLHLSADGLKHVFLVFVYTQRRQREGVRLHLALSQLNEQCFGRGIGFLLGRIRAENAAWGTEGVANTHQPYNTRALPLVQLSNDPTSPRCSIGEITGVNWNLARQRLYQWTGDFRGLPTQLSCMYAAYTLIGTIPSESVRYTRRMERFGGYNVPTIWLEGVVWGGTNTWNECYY

Results are given in words; binding and its absence hold for the method and conditions named. For part of these data: A result given as binding can be weak or reduced; the word gives no strength. For part of these data: Binding seen in cells or lysates may run through a third protein.

Assay [1] concerns the target T1, YPet-ZBP1_(170-355) (human) (UniProt Q9H171).
T1 sequence: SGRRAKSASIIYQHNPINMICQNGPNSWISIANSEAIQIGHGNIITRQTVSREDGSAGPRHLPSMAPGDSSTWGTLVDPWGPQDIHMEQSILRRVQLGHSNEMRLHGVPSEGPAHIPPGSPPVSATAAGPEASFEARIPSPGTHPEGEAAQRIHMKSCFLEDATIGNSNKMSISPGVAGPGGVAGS
The assay can be described thus: confocal microscopy of fibrils formed from purified proteins; proteins mixed and dialysed at 5 uM from 8 M urea into 25 mM NaH2PO4, 150 mM NaCl, 0.5 mM DTT, pH 7.4, with ThT; YPet, mCherry and ThT fluorescence imaged; both purified.

The target in assay [2] is YPet-ZBP1_(170-355)mutB (human) (UniProt Q9H171). Briefly: single molecule fluorescence confocal spectroscopy (two-colour coincidence); proteins alone or one mCherry-tagged and one YPet-tagged protein mixed, diluted out of 8 M urea to 0.35-0.7 uM in 25 mM NaH2PO4, 150 mM NaCl, 0.5 mM DTT, pH 7.4; room temperature; 488 and 561 nm lasers; both ….
The target of assay [3] is YPet-ZBP1_(170-355)mutA (human) (UniProt Q9H171). The description is as above.
Assay [4] deals with T1, YPet-ZBP1_(170-355) (human). The assay is described as above.
Assay [5] has as its target YPet-RIPK1_(497-583) (human) (UniProt Q13546). The assay is described as above.
Assay [6] has as its target YPet-RIPK3_(387-518) (human) (UniProt Q9Y572). Described as above.
Assay [7] deals with T1, YPet-ZBP1_(170-355) (human). Briefly: sodium dodecyl sulfate agarose gel electrophoresis (SDS-AGE); 5 uM per protein, alone or combined, dialysed from 8 M urea against assembly buffer overnight; incubated with water for 10 min before electrophoresis; monomer controls kept in 8 M urea; fluorescence imaging; both purified.
For assay [8] the target is unchanged. The assay can be described thus: transmission electron microscopy; protein solutions at 5 uM, alone or in mixtures, on carbon/formvar grids, stained with 2% uranyl acetate; both purified.
For assay [9] the target is unchanged. Briefly: sodium dodecyl sulfate agarose gel electrophoresis (SDS-AGE); as a8, but assembled samples incubated with 2% SDS at room temperature for 10 min before electrophoresis; both purified.
Assay [10] addresses ZBP1-GFP (human) (UniProt Q9H171). The assay can be described thus: co-IP; 293T cells co-transfected; insoluble fraction (pellet resuspended in 8 M urea, 20 mM Tris pH 8.0, overnight at 4 C); GFP-TrapA with the GFP-tagged protein as bait; Western blot. (A western blot detects proteins with antibodies after separation by electrophoresis.)
Assay [11] concerns the target RIPK1 (co-immunoprecipitation) (human) (UniProt Q13546). Briefly: co-IP; ORF20 and RIPK1 'by this method' (co-transfected 293T cells, immunoprecipitation); no figure shown.
Assay [12] has as its target ZBP1-GFP (human) (UniProt Q9H171). Briefly: co-IP; 293T cells co-transfected; soluble fraction (supernatant of DISC lysis buffer lysate: 1% Triton X-100, 10% glycerol, 150 mM NaCl, 2 mM EDTA, 30 mM Tris pH 7.5; 16,000 x g, 4 C); GFP-TrapA with the GFP-tagged protein as bait; Western blot.

As to “ORF20_(1-114)-mCherry (from UniProt P09276) (domain or fragment)”, the binding entry in [1] is given as “binds”; in assay [2] it was “binds”; in assay [3], “binds weakly”; in assay [4] it was “binds”; in [5], “no binding (tested: 0.35-0.7 uM)”; in [6], “binds”.
Regarding “Ub-ORF20_(1-114) (from UniProt P09276) (domain or fragment)”, the binding entry in [7], in assay [8] and in assay [9] was “binds” throughout.
Take “V5-tagged ORF20 (VZV capsid triplex subunit 1) (from UniProt P09276)”: the figures for the binding result (with ZBP1-GFP (human) [10]; in [11]; with ZBP1-GFP (human) [12]) were “binds”, “no binding” and “binds”, respectively.
